Laboratory results reported in US20020025929A1, “METHOD OF BUILDING AND MAINTAINING BONE” (priority 1997, published 2002).

Experiment: Body weight of ovariectomized rats
Assay type: in vivo, Sprague-Dawley female rats
Conditions: compound 1a 0.03-3 mg/kg, EE2, PTH (1-34) 10 μg/kg alone or in combination with compound 1a
Experimental: In the first study, six-month old virgin Sprague-Dawley female rats weighing about 300 g each were maintained on a 12 hr light/12 hr dark cycle at 22° C. with ad lib access to food (TD 89222 diet containing 0.5% calcium and 0.4% phosphorus, Teklad, Madison, Wis., USA), Except for sham-operated control animals, bilateral ovariectomies were performed on the test animals. In the case of the sham-operated animals, the surgical ovariectomization technique was followed, but the ovaries were left intact to provide a control for assessing any effect which might be due to the surgical trauma.
The ovariectomized (OVX) animals were randomized and permitted to lose bone for one month before beginning treatment for the following three months.
The animal groups included: sham-operated animals(SHAM, n=8); bilaterally ovariectomized animals (OVX, n=7); bilaterally ovariectomized animals treated with 17α-ethynyl estradiol (Sigma Fine Chemicals, St. Louis, Mo., USA) dosed orally at a level of 0.1 mg/kg/day (n=7); and bilaterally ovariectomized animals treated with compound 1a at levels of 0.003, 0.03. 0.3 or 3 mg/kg/day, respectively, dosed orally (n=8 in each group).
SHAM and OVX control animals were orally dosed by gavage with the vehicle or 1 mL/kg of body weight of 20% hydroxypropyl-β-cyclodextrin (Aldrich Chemical Co., Milwaukee, Wis., USA). Estrogen-treated control animals were administered 0.1 mg/kg/day of 17α-ethynyl estradiol by gavage. Animals treated with various doses of 1a were administered the appropriate dose by gavage in 1 mL/kg of body weight of 20% cyclodextrin.

Question: Which “body weight compared to OVX and Sham” value does the source give for “PTH: N-terminal 1-34 fragment of human parathyroid hormone, hPTH(1-34, Sequence ID No. 3); PTH/vehicle = 45 days PTH then vehicle” here?
Answer: The value was “little effect compared to OVX”.

Question: For C#C[C@]1(O)CC[C@H]2[C@@H]3CCc4cc(O)ccc4[C@H]3CC[C@@]21C [EE2, 17α-ethynyl estradiol], which “body weight compared to OVX and Sham” value is on record?
Answer: Its value is “lowered body weight below OVX to Sham levels”.

Question: With COc1ccc(-c2sc3cc(O)ccc3c2Oc2ccc(OCCN3CCCCC3)cc2)cc1 [Compound 1a, 6-hydroxy-2-(4-methoxyphenyl)-3-[4-(2-piperidin-1-ylethoxy)phenoxy]-benzo[b]thiophene] as the compound, how does the “body weight compared to OVX and Sham” value read?
Answer: The value was “no effect on body weight compared to OVX”.
